Experimental data: the supplement of paper PMC12823440, “Inhibitors supercharge kinase turnover through native proteolytic circuits” (Nature, 2025)
Counter-ions that a name gives are not always drawn. The list shows a part of the results. Hit calls seldom repeat between salt and free forms of one compound.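 Kinases, fused to nanoluciferase, were expressed in K562 cells; luminescence was measured every 4 h from 2 to 18 h as percent of control (DMSO = 100%, positive control = 0%). A time point is decreased if signal falls significantly (2 sigma). Hits were called by the authors by a rule that is not shown; the count of time points alone does not decide it.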

Amino acid sequences for entries named in this document (tags omitted). A change or cut given only in a name is not applied to a line headed by its entry.
UniProt Q13546: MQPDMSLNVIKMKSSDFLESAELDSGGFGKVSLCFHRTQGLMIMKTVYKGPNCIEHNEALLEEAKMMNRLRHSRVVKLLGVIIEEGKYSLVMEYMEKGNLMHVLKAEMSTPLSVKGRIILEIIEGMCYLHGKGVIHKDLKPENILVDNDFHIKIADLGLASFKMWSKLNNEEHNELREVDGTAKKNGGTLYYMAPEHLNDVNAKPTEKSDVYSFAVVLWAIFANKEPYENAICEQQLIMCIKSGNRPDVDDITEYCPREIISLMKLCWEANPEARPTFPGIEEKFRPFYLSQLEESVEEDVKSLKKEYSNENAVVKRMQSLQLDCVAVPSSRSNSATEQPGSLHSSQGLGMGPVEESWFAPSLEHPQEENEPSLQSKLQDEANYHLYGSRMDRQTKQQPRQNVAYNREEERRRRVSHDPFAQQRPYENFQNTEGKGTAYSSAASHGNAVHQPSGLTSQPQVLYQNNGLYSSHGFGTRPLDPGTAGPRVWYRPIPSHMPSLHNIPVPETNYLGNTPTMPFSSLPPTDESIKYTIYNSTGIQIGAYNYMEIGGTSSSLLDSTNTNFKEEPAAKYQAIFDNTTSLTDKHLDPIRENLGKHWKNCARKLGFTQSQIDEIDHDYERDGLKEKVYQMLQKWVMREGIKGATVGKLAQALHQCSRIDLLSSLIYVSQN

Molecular target: RIPK1 (UniProt Q13546)
Experiment: kinase-Nluc reporter destabilization hit call (1 = scored as downregulated) (binary); higher = compound decreases kinase abundance
Conditions: K562; 2-18 h

kinase-Nluc reporter destabilization hit call, inactive:
O=C(CSC1=NCCN1)NC1CCCCCC1 [ICCB-19 (hydrochloride)] (2.5 µM) 0
CCCS(=O)(=O)Nc1ccc(F)c(C(=O)c2c[nH]c3ncc(-c4ccc(Cl)cc4)cc23)c1F [Vemurafenib] (10 µM) 0
Cc1ccc(OCCSc2ncccn2)c(Br)c1 [ZLN024 (hydrochloride)] (10 µM) 0
Nc1ncnc2c1c(-c1ccc(Oc3ccccc3)cc1)nn2C1CCCC1 (2.5 µM) 0
COc1ncc(Cl)cc1S(=O)(=O)Nc1ccc(F)c(C#Cc2cnc(N)nc2)c1F (2.5 µM) 0
Cc1ccc(CNc2ncnc3ccc(-c4ccc(CO)o4)cc23)o1 (10 µM) 0
NC(=O)c1nnc(N[C@@H]2CCCC[C@@H]2N)nc1Nc1cccc2cc[nH]c12 (10 µM) 0
CNc1nc(Nc2ccc(C(=O)N3CCOCC3)cc2OC)nc2[nH]cc(Cl)c12 (2.5 µM) 0
CCNc1nc(Nc2cc(F)c(C(=O)N3CCOCC3)cc2OC)ncc1C(F)(F)F [GNE-7915 (tosylate)] (10 µM) 0
CCN1CCN(Cc2ccc(Nc3ncc(F)c(-c4cc(F)c5nc(C)n(C(C)C)c5c4)n3)nc2)CC1 [Abemaciclib] (2 µM) 0
COCCNc1nc2ccc(C#CC3(O)CCCCC3)cc2n1-c1ccnc(N)n1 (10 µM) 0
OCCn1cc(-c2ccc3c(c2)CC/C3=N\O)c(-c2ccncc2)n1 (10 µM) 0
O=C1N[C@@H](Cc2c[nH]c3ccccc23)C(=O)N2CCC[C@@H]12 [Brevianamide F] (10 µM) 0
Cn1nccc1Nc1nccc(-c2ccn([C@H](CO)c3ccc(Cl)c(F)c3)c(=O)c2)n1 [Ravoxertinib] (10 µM) 0
O=C(NCCN1CCOCC1)c1cc2c(Oc3ccc(NC(=O)C4(C(=O)Nc5ccc(F)cc5)CC4)cc3)ccnc2[nH]1 [Tyrosine kinase inhibitor] (10 µM) 0
COc1cc2c(N3CCN(C(=O)Nc4ccc(OC(C)C)cc4)CC3)ncnc2cc1OCCCN1CCCCC1 [Tandutinib (hydrochloride)] (10 µM) 0
COc1cc(/C=C/C(=O)NCC(O)c2ccc(O)cc2)ccc1O (stereo not drawn) [N-Feruloyloctopamine] (2.5 µM) 0
COc1cc2nccc(Oc3ccc(NC(=O)NC4CC4)c(Cl)c3)c2cc1C(N)=O [Lenvatinib (mesylate)] (10 µM) 0
CN1CCN(c2cccc(Nc3nc4c(-c5ccc(S(C)(=O)=O)cc5)cccn4n3)c2)CC1 (10 µM) 0
C=C(CC[C@@H](C(=O)O)[C@H]1[C@H](O)C[C@@]2(C)C3=C(CC[C@]12C)[C@@]1(C)CC[C@H](OC(C)=O)C(C)(C)[C@@H]1CC3)C(C)C [Pachymic acid] (10 µM) 0
O=c1[nH]c(=O)n([C@@H]2O[C@H](CO)[C@@H](O)[C@@H]2O)cc1/C=C/Br [Sorivudine] (10 µM) 0
NC(=O)c1ccc(-c2nc(-c3ccc4c(c3)OCCO4)c(-c3ccccn3)[nH]2)cc1 (10 µM) 0
CC#CC(=O)Nc1ccc2ncnc(Nc3cccc(Br)c3)c2c1 (10 µM) 0
CCc1c(C(=O)NNC(=O)C(O)c2cc(F)cc(F)c2)ccc(O)c1C (stereo not drawn) (10 µM) 0
CC(=O)c1c(C)cc2cccc(O)c2c1O [Nepodin] (10 µM) 0
Cc1c(-c2c(F)cc(C(N)=O)c3[nH]c4c(c23)CC[C@H](C(C)(C)O)C4)cccc1-n1c(=O)c2cccc(F)c2n(C)c1=O (2.5 µM) 0
CCc1cc2c(cc1N1CCC(N3CCOCC3)CC1)C(C)(C)c1[nH]c3cc(C#N)ccc3c1C2=O [Alectinib] (10 µM) 0
FC(F)c1nc2ccccc2n1-c1nc(N2CCOCC2)nc(N2CCOCC2)n1 (2 µM) 0
FC(F)(c1ccc2ncccc2c1)c1nnc2ccc(-c3ccncc3)nn12 (10 µM) 0
Cn1cc(-c2cnn3c(N)c(Br)c([C@@H]4CCCNC4)nc23)cn1 (2.5 µM) 0
C[C@@H]1COCCN1c1cc(C2([S@@](C)(=N)=O)CC2)nc(-c2ccnc3[nH]ccc23)n1 [(S)-Ceralasertib] (10 µM) 0
CC#CC(=O)N1CC[C@@H](n2c(=O)n(-c3ccc(Oc4ccccc4)cc3)c3c(N)ncnc32)C1 [Tirabrutinib] (10 µM) 0
C[C@@]1(c2ncncc2F)NC(=O)c2cc(-c3cn[nH]c3)ccc21 (10 µM) 0
COc1ccc(Cl)c(Nc2nc3ccccc3nc2NS(=O)(=O)c2cccc(NC(=O)C(C)(C)N)c2)c1 [Pilaralisib] (10 µM) 0
O=Nc1c(-c2c(O)[nH]c3ccc(I)cc23)[nH]c2ccccc12 [5-Iodo-indirubin-3'-monoxime] (10 µM) 0
COc1cc2nccc(Oc3ccc(NC(=O)NC4CC4)c(Cl)c3)c2cc1C(N)=O [Lenvatinib] (10 µM) 0
C[C@]1(O)CCN(c2nc(N3C[C@H](O)[C@@H](O)C3)cc(C(F)(F)F)c2C#N)C1 (10 µM) 0
Cn1cnc(Cn2ccc3ccc(CNCc4[nH]c5ccccc5c4[C@H]4NC(=O)c5ccc(O)cc54)cc32)c1 (10 µM) 0

Three consecutive records already listed, quoted:
kinase-Nluc reporter destabilization hit call, inactive:
Cc1ccc(OCCSc2ncccn2)c(Br)c1 [ZLN024 (hydrochloride)] (10 µM) 0
Nc1ncnc2c1c(-c1ccc(Oc3ccccc3)cc1)nn2C1CCCC1 (2.5 µM) 0
COc1ncc(Cl)cc1S(=O)(=O)Nc1ccc(F)c(C#Cc2cnc(N)nc2)c1F (2.5 µM) 0
